Measured values taken from US20110038804A1, “MR IMAGING AGENT, IMAGING MEDIUM AND METHODS OF IMAGING WHEREIN SUCH AN IMAGING MEDIUM IS USED” (priority 2007, published 2011).

Key:
[1] = Solid state polarisation after dynamic nuclear polarisation, by solid state 13C-NMR; assay type: physicochemical; details: DNP at 1.2 K, 3.35 T, microwave 93.89 GHz, trityl radical and Gd-chelate
[2] = Liquid state polarisation after dissolution, by liquid state 13C-NMR at 400 MHz; assay type: physicochemical
[3] = salt polarised directly, 120 minutes DNP, dissolved in phosphate buffer pH 7.3, 50 mM

Question: Which solid state polarisation [1] does the source give for CC(C)CC(=O)[13C](=O)O [^13C1-α-ketoisocaproic acid] here?
Answer: 27%

Question: What does the source list for CC(C)CC(=O)[13C](=O)O.NC(CO)(CO)CO [TRIS-^13C1-α-ketoisocaproate]?
Answer: solid state polarisation [1]: 36%; liquid state polarisation [2, 3]: 34%

Question: For CC(C)CC(=O)[13C](=O)[O-].[Na+] [sodium ^13C1-α-ketoisocaproate], which solid state polarisation [1] is on record?
Answer: approximately 30%

Question: And the liquid state polarisation ([2]; obtained from polarised 13C1-α-ketoisocaproic acid, 90 minutes DNP, dissolved in phosphate buffer/NaOH, pH 7.3, 50 mM)?
Answer: 25%

Question: And the liquid state polarisation [2, 3]?
Answer: 29%
